The text below walks through data of publication PMC8406308.

Protein sequences, listed by entry. Tags and fused reporters are not part of them.
UniProt P63283: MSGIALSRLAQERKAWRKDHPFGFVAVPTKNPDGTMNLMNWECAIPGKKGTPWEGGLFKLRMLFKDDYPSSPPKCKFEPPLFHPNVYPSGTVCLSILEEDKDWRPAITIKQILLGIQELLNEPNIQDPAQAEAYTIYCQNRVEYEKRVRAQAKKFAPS
UniProt P63279: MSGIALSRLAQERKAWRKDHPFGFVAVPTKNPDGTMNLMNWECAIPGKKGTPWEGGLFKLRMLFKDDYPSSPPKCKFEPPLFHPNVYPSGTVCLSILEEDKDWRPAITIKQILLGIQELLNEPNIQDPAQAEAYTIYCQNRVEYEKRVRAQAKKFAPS

Assay [1] addresses T1, endogenous API5 (apoptosis inhibitor 5) of DF-1 cells (chicken (endogenous in DF-1)) (UniProt Q5ZMW3).
T1 sequence: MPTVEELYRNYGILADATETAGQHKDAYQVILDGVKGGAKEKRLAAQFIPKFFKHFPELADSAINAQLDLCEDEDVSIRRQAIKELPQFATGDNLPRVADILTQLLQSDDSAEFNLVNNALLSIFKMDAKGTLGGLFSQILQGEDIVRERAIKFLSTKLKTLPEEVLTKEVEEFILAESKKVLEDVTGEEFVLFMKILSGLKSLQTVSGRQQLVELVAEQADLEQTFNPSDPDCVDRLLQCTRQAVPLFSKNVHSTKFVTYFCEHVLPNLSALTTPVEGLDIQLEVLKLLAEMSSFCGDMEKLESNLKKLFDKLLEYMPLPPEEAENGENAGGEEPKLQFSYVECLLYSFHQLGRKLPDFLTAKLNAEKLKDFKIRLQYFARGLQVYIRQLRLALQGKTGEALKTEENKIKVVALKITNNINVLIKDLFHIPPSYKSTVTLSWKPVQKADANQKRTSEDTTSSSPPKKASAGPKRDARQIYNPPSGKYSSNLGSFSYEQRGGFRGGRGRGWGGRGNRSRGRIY
Description: co-IP; lysates of DF-1 cells precipitated with anti-API5 mouse MAb (anti-IgG as control); blot with anti-API5 and anti-UBC9 rabbit pAbs.

For assay [2], the target named is T2, Flag-API5 (apoptosis inhibitor 5) (Gallus (chicken)) (UniProt Q5ZMW3).
T2 sequence: T1 sequence
Description: co-IP; HEK293T cells cotransfected for 48 h, lysed in NP-40 buffer; precipitated with anti-Flag, anti-Myc or anti-GFP mouse MAb and protein A/G agarose at 4°C; Western blot. Background: In western blotting, separated proteins are transferred to a membrane and probed.

Results are given in words; binding and its absence hold for the method and conditions named. In cells and extracts the contact can be indirect. Some entries that bind do so weakly or less than the wild type. For some assays here: Where a sequence is shown, tags or fusion partners need not be part of it.

With “endogenous UBC9 of DF-1 cells (from UniProt P63283 1-158) (enzyme)”, the binding entry in assay [1] is “binds”.

For “pEGFP-UBC9 (from UniProt P63279 1-158) (enzyme)”, in assay [2], the binding result was “binds”.
